According to the supplement of paper PMC8728848:
This is one part of the list.

Key:
Test in all cases: glycan array binding signal (z-score within array); higher = stronger binding
Conditions in all cases: glycan notation: IUPAC condensed, linker removed
[1] = target: Gal(b1-4)GlcNAc(b1-2)[Gal(b1-4)GlcNAc(b1-6)]Man(a1-6)[GlcNAc(b1-4)][Gal(b1-4)GlcNAc(b1-2)Man(a1-3)]Man(b1-4)GlcNAc(b1-4)GlcNAc
Summary of the method: (§1)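 The Consortium for Functional Glycomics database supplied 3228 glycan arrays, of which those lacking an available protein sequence were dropped. The binding signal, a within-array Z-score, was averaged across arrays of the same protein sequence and across linkers. Negative scores can be read as non-binding.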

[2] = target: Gal(b1-4)GlcNAc(b1-2)[Gal(b1-4)GlcNAc(b1-6)]Man(a1-6)[GlcNAc(b1-4)][Gal(b1-4)GlcNAc(b1-2)[Gal(b1-4)GlcNAc(b1-4)]Man(a1-3)]Man(b1-4)GlcNAc(b1-4)[Fuc(a1-6)]GlcNAc
Summary of the method: as §1

[3] = target: Gal(b1-4)GlcNAc(b1-3)Gal(b1-3)GalNAc
Summary of the method: as §1

[4] = target: Gal(b1-4)GlcNAc(b1-3)Gal(b1-3)GlcNAc
Summary of the method: as §1

[5] = target: Gal(b1-4)GlcNAc(b1-3)Gal(b1-4)Glc
Summary of the method: as §1

[6] = target: Gal(b1-4)GlcNAc(b1-3)Gal(b1-4)GlcNAc
Summary of the method: as §1

[7] = target: Gal(b1-4)GlcNAc(b1-3)Gal(b1-4)GlcNAc(b1-2)Man(a1-3)[Gal(b1-4)GlcNAc(b1-3)Gal(b1-4)GlcNAc(b1-2)Man(a1-6)]Man(b1-4)GlcNAc(b1-4)GlcNAc
Summary of the method: as §1

[8] = target: Gal(b1-4)GlcNAc(b1-3)Gal(b1-4)GlcNAc(b1-2)Man(a1-3)[Gal(b1-4)GlcNAc(b1-3)Gal(b1-4)GlcNAc(b1-2)Man(a1-6)]Man(b1-4)GlcNAc(b1-4)[Fuc(a1-6)]GlcNAc
Summary of the method: as §1

[9] = target: Gal(b1-4)GlcNAc(b1-3)Gal(b1-4)GlcNAc(b1-2)[Gal(b1-4)GlcNAc(b1-3)Gal(b1-4)GlcNAc(b1-6)]Man(a1-6)[Gal(b1-4)GlcNAc(b1-3)Gal(b1-4)GlcNAc(b1-2)Man(a1-3)]Man(b1-4)GlcNAc(b1-4)GlcNAc
Summary of the method: as §1

[10] = target: Gal(b1-4)GlcNAc(b1-3)Gal(b1-4)GlcNAc(b1-2)[Gal(b1-4)GlcNAc(b1-3)Gal(b1-4)GlcNAc(b1-6)]Man(a1-6)[Gal(b1-4)GlcNAc(b1-3)Gal(b1-4)GlcNAc(b1-2)Man(a1-3)]Man(b1-4)GlcNAc(b1-4)[Fuc(a1-6)]GlcNAc
Summary of the method: as §1

[11] = target: Gal(b1-4)GlcNAc(b1-3)Gal(b1-4)GlcNAc(b1-3)Gal(b1-4)GlcNAc
Summary of the method: as §1

[12] = target: Gal(b1-4)GlcNAc(b1-3)Gal(b1-4)GlcNAc(b1-3)Gal(b1-4)GlcNAc(b1-2)Man(a1-3)[Gal(b1-4)GlcNAc(b1-3)Gal(b1-4)GlcNAc(b1-3)Gal(b1-4)GlcNAc(b1-2)Man(a1-6)]Man(b1-4)GlcNAc(b1-4)GlcNAc
Summary of the method: as §1

[13] = target: Gal(b1-4)GlcNAc(b1-3)Gal(b1-4)GlcNAc(b1-3)Gal(b1-4)GlcNAc(b1-2)Man(a1-3)[Gal(b1-4)GlcNAc(b1-3)Gal(b1-4)GlcNAc(b1-3)Gal(b1-4)GlcNAc(b1-2)Man(a1-6)]Man(b1-4)GlcNAc(b1-4)[Fuc(a1-6)]GlcNAc
Summary of the method: as §1

[14] = target: Gal(b1-4)GlcNAc(b1-3)Gal(b1-4)GlcNAc(b1-3)Gal(b1-4)GlcNAc(b1-2)[Gal(b1-4)GlcNAc(b1-3)Gal(b1-4)GlcNAc(b1-3)Gal(b1-4)GlcNAc(b1-6)]Man(a1-6)[Gal(b1-4)GlcNAc(b1-3)Gal(b1-4)GlcNAc(b1-3)Gal(b1-4)GlcNAc(b1-2)Man(a1-3)]Man(b1-4)GlcNAc(b1-4)[Fuc(a1-6)]GlcNAc
Summary of the method: as §1

[15] = target: Gal(b1-4)GlcNAc(b1-3)Gal(b1-4)GlcNAc(b1-3)Gal(b1-4)GlcNAc(b1-3)Gal(b1-4)GlcNAc(b1-2)Man(a1-3)[Gal(b1-4)GlcNAc(b1-3)Gal(b1-4)GlcNAc(b1-3)Gal(b1-4)GlcNAc(b1-3)Gal(b1-4)GlcNAc(b1-2)Man(a1-6)]Man(b1-4)GlcNAc(b1-4)GlcNAc
Summary of the method: as §1

[16] = target: Gal(b1-4)GlcNAc(b1-3)Gal(b1-4)GlcNAc(b1-3)Gal(b1-4)GlcNAc(b1-3)Gal(b1-4)GlcNAc(b1-2)Man(a1-3)[Gal(b1-4)GlcNAc(b1-3)Gal(b1-4)GlcNAc(b1-3)Gal(b1-4)GlcNAc(b1-3)Gal(b1-4)GlcNAc(b1-2)Man(a1-6)]Man(b1-4)GlcNAc(b1-4)[Fuc(a1-6)]GlcNAc
Summary of the method: as §1

[17] = target: Gal(b1-4)GlcNAc(b1-3)Gal(b1-4)GlcNAc(b1-3)Gal(b1-4)GlcNAc(b1-3)Gal(b1-4)GlcNAc(b1-2)[Gal(b1-4)GlcNAc(b1-3)Gal(b1-4)GlcNAc(b1-3)Gal(b1-4)GlcNAc(b1-3)Gal(b1-4)GlcNAc(b1-6)]Man(a1-6)[Gal(b1-4)GlcNAc(b1-3)Gal(b1-4)GlcNAc(b1-3)Gal(b1-4)GlcNAc(b1-3)Gal(b1-4)GlcNAc(b1-2)Man(a1-3)]Man(b1-4)GlcNAc(b1-4)[Fuc(a1-6)]GlcNAc
Summary of the method: as §1

[18] = target: Gal(b1-4)GlcNAc(b1-3)Gal(b1-4)GlcNAc(b1-3)Gal(b1-4)GlcNAc(b1-3)Gal(b1-4)GlcNAc(b1-3)Gal(b1-4)GlcNAc(b1-2)Man(a1-3)[Gal(b1-4)GlcNAc(b1-3)Gal(b1-4)GlcNAc(b1-3)Gal(b1-4)GlcNAc(b1-3)Gal(b1-4)GlcNAc(b1-3)Gal(b1-4)GlcNAc(b1-2)Man(a1-6)]Man(b1-4)GlcNAc(b1-4)GlcNAc
Summary of the method: as §1

[19] = target: Gal(b1-4)GlcNAc(b1-3)Gal(b1-4)GlcNAc(b1-3)Gal(b1-4)GlcNAc(b1-3)Gal(b1-4)GlcNAc(b1-3)Gal(b1-4)GlcNAc(b1-2)Man(a1-3)[Gal(b1-4)GlcNAc(b1-3)Gal(b1-4)GlcNAc(b1-3)Gal(b1-4)GlcNAc(b1-3)Gal(b1-4)GlcNAc(b1-3)Gal(b1-4)GlcNAc(b1-2)Man(a1-6)]Man(b1-4)GlcNAc(b1-4)[Fuc(a1-6)]GlcNAc
Summary of the method: as §1

[20] = target: Gal(b1-4)GlcNAc(b1-3)Gal(b1-4)GlcNAc(b1-3)Gal(b1-4)GlcNAc(b1-3)Gal(b1-4)GlcNAc(b1-3)Gal(b1-4)GlcNAc(b1-2)[Gal(b1-4)GlcNAc(b1-3)Gal(b1-4)GlcNAc(b1-3)Gal(b1-4)GlcNAc(b1-3)Gal(b1-4)GlcNAc(b1-3)Gal(b1-4)GlcNAc(b1-6)]Man(a1-6)[Gal(b1-4)GlcNAc(b1-3)Gal(b1-4)GlcNAc(b1-3)Gal(b1-4)GlcNAc(b1-3)Gal(b1-4)GlcNAc(b1-3)Gal(b1-4)GlcNAc(b1-2)Man(a1-3)]Man(b1-4)GlcNAc(b1-4)[Fuc(a1-6)]GlcNAc
Summary of the method: as §1

[21] = target: Gal(b1-4)GlcNAc(b1-3)Gal(b1-4)GlcNAc(b1-3)Gal(b1-4)GlcNAc(b1-3)Gal(b1-4)GlcNAc(b1-3)Gal(b1-4)GlcNAc(b1-3)Gal(b1-4)GlcNAc(b1-2)Man(a1-3)[Gal(b1-4)GlcNAc(b1-3)Gal(b1-4)GlcNAc(b1-3)Gal(b1-4)GlcNAc(b1-3)Gal(b1-4)GlcNAc(b1-3)Gal(b1-4)GlcNAc(b1-3)Gal(b1-4)GlcNAc(b1-2)Man(a1-6)]Man(b1-4)GlcNAc(b1-4)GlcNAc
Summary of the method: as §1

[22] = target: Gal(b1-4)GlcNAc(b1-3)Gal(b1-4)GlcNAc(b1-3)GalNAc
Summary of the method: as §1

[23] = target: Gal(b1-4)GlcNAc(b1-3)Gal(b1-4)GlcNAc(b1-3)[Gal(b1-4)GlcNAc(b1-3)Gal(b1-4)GlcNAc(b1-6)]GalNAc
Summary of the method: as §1

[24] = target: Gal(b1-4)GlcNAc(b1-3)Gal(b1-4)GlcNAc(b1-6)[Gal(b1-3)]GalNAc
Summary of the method: as §1

[25] = target: Gal(b1-4)GlcNAc(b1-3)Gal(b1-4)[Fuc(a1-3)]GlcNAc(b1-3)Gal(b1-4)[Fuc(a1-3)]GlcNAc
Summary of the method: as §1

[26] = target: Gal(b1-4)GlcNAc(b1-3)GalNAc
Summary of the method: as §1

[27] = target: Gal(b1-4)GlcNAc(b1-3)[Fuc(a1-3)GlcNAc(b1-6)]Gal(b1-4)Glc
Summary of the method: as §1

[28] = target: Gal(b1-4)GlcNAc(b1-3)[Gal(b1-4)GlcNAc(b1-6)]Gal(b1-4)GlcNAc
Summary of the method: as §1

[29] = target: Gal(b1-4)GlcNAc(b1-3)[GlcNAc(b1-6)]Gal(b1-4)GlcNAc
Summary of the method: as §1

[30] = target: Gal(b1-4)GlcNAc(b1-6)Gal(b1-4)GlcNAc
Summary of the method: as §1

[31] = target: Gal(b1-4)GlcNAc(b1-6)GalNAc
Summary of the method: as §1

[32] = target: Gal(b1-4)GlcNAc(b1-6)[Gal(b1-3)]GalNAc
Summary of the method: as §1

[33] = target: Gal(b1-4)GlcNAc(b1-6)[Gal(b1-4)GlcNAc(b1-3)]GalNAc
Summary of the method: as §1

[34] = target: Gal(b1-4)GlcNAc6P
Summary of the method: as §1

[35] = target: Gal(b1-6)Gal
Summary of the method: as §1

[36] = target: Gal3S(b1-3)GalNAc
Summary of the method: as §1

[37] = target: Gal3S(b1-3)GlcNAc
Summary of the method: as §1

[38] = target: Gal3S(b1-3)[Fuc(a1-4)]GlcNAc
Summary of the method: as §1

B1: GS13971A-bth-447-22-447 (Bacteroides thetaiotaomicron) (protein)
chain: EDVDNERSKGMFSASQSGFSTIEVYDLGPLNKIDLSIAKAGLEDTGGTVTFSVEQSLLDSLNNADGTSYQLLPPECYTIENATYSVSPGGDRRVTGGSLVYDPHKIYNLCGFDELKYVLPLRVSSTGTPMNSDRTATLYGFIVKEAIVRLASTGGDFVVEGGTTTSPMNLDTEISFENEWDLTTSFATKGADYVDNYNSANSTYYIPLPSDFYTLPDVTIAKGKTTGGSAISLLGETLPPGNYLLPVSLGGLSGQGDASINIDKETVANYFVIKQGGPINRDHWTVTANTEEKTGEVSAAYPHNGQTISLIDGEINTFWHSKWQGGEVAPPYEIILDMGKENSVSQLGLIARQNALTSMNLEIYAGDDGETWNLIGKYFFDGSIKTEQMVPVKACDARWIRIYIPTLGSGSSVGHLAEIYVYGTDK
glycan array binding signal (z-score) [1]: -0.919
glycan array binding signal (z-score) [2]: 0.67
glycan array binding signal (z-score) [3]: -0.104
glycan array binding signal (z-score) [4]: 0.498
glycan array binding signal (z-score) [5]: 0.593
glycan array binding signal (z-score) [6]: -1.12
glycan array binding signal (z-score) [7]: 0.856
glycan array binding signal (z-score) [8]: 0.359
glycan array binding signal (z-score) [9]: 0.928
glycan array binding signal (z-score) [10]: 2.62
glycan array binding signal (z-score) [11]: -0.169
glycan array binding signal (z-score) [12]: 1.88
glycan array binding signal (z-score) [13]: -0.389
glycan array binding signal (z-score) [14]: 0.617
glycan array binding signal (z-score) [15]: -0.267
glycan array binding signal (z-score) [16]: 2.21
glycan array binding signal (z-score) [17]: 2.31
glycan array binding signal (z-score) [18]: 1.68
glycan array binding signal (z-score) [19]: 2.91
glycan array binding signal (z-score) [20]: 1.41
glycan array binding signal (z-score) [21]: 2.06
glycan array binding signal (z-score) [22]: -0.708
glycan array binding signal (z-score) [23]: 1.02
glycan array binding signal (z-score) [24]: -0.527
glycan array binding signal (z-score) [25]: 0.32
glycan array binding signal (z-score) [26]: -0.398
glycan array binding signal (z-score) [27]: 1.07
glycan array binding signal (z-score) [28]: 0.569
glycan array binding signal (z-score) [29]: 0.129
glycan array binding signal (z-score) [30]: 1.71
glycan array binding signal (z-score) [31]: -0.228
glycan array binding signal (z-score) [32]: 0.501
glycan array binding signal (z-score) [33]: -0.463
glycan array binding signal (z-score) [34]: 0.031
glycan array binding signal (z-score) [35]: -0.497
glycan array binding signal (z-score) [36]: 0.068
glycan array binding signal (z-score) [37]: 0.338
glycan array binding signal (z-score) [38]: -0.176
